Experimental data taken from PubChem BioAssay AID1487 (National Center for Advancing Translational Sciences (NCATS), 2009).
Screen size: about 200,000 compounds; about 25 (0.01%) were called active. Inconclusive results, whose numbers are uncertain, are shown with a selection of clear calls. The call rests on the fitted dose curve; in most records, active means well fitted inhibition curve with a large enough effect in the signal ratio, with a control signal flat (not every such curve was filed as active); inconclusive means small, poorly fitted or top-dose-only effect, or effect the other way, or a change in a side signal; inactive means flat fitted curve, though single readings scatter; the % refers to the signal ratio. Where the call is inconclusive, the potency comes from a doubtful curve fit.

Assay: qHTS Assay for Modulators of Lamin A Splicing
Conditions: HeLa LMNA splicing GFP/RFP minigene ratio, 48 h; ratio change, negative = inhibition: at 46.1 µM (top of the series) unless noted
Summary of the method: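 S3 HeLa stable clones carrying a lamin A-EGFP splicing minigene plus DsRed2 were seeded at 600 cells/well in Opti-MEM with 2% FBS, pin-dosed and incubated 48 h at 37°C. Acumen cytometry (488 nm) gave the GFP/RFP total-intensity ratio.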
On the % scale 0 is the no-effect control and ±100 the full control effect; potency means the concentration at half of the fitted maximal effect.

Compound | Potency | ratio change, negative = inhibition
O=C(CSc1ccccc1)Nc1nc2ccccc2[nH]1 | inconclusive: 35.5 µM [falling, single point] | –
CCOc1cccc(C(=O)NC(=S)Nc2ccc(N3CCCC3)cc2)c1 | – | inactive: -6.95%
COc1cc(-c2nc(-c3ccccn3)no2)cc(OC)c1OC | – | inactive: 0.232%
COc1cccc(CNC(=O)CCC2CCCN(C3CCOCC3)C2)c1 (stereo unspecified) | – | inconclusive: -1.83% [at 46 µM]
c1csc(-c2csc3nc(CN4CCOCC4)nc(NCc4ccc5c(c4)OCO5)c23)c1 | – | inconclusive: -4.57%
CCCN1C2CCCC1CC(NC(=O)NC1CCCCC1)C2 (stereo unspecified) | – | inactive: -12.3%
COc1c(O)cc2oc3cc(O)c(CC=C(C)C)c(O)c3c(=O)c2c1CC=C(C)C | – | inconclusive: -5.91%
Cc1cnc(CNc2ncncc2-c2cccc(C#N)c2)cn1 | – | inactive: 2.84%
CSc1nsc(/C=C/Nc2ccc(C)cc2)c1C#N | – | inconclusive: 6.51%
Cc1ccc(SCC(=O)N2c3ccccc3Sc3ccccc32)cc1 | – | inactive: 6%
O=C(Nc1ccc2c(c1)OCO2)c1cc(-c2ccncc2)nc2ccccc12 | – | inactive: -6.47% [at 46 µM]
Cc1ccc2nc(-c3ccccc3)nc(SC(C)C(=O)NCc3cccs3)c2c1 (stereo unspecified) | – | inactive: -2.91%
CCn1cc(Br)c(C(=O)Nc2ccc(C(=O)OC(C)C)cc2)n1 | – | inconclusive: 0.897%
C=CCn1c(O)c(N=NC(=S)Nc2cccc(OC)c2)c2ccccc21 | inconclusive: 10 µM [fluorescent, partial curve] | –
CC(C)(c1ccccc1)c1ccc(OCCCNCCO)cc1 | inconclusive: 0.355 µM [activator, partial curve] | –
Cc1ccc(C2=NNC(=Nc3ccc(F)cc3)SC2)cc1 | inconclusive: 35.5 µM [falling, single point] | –
CCOC(=O)N1CCN(C(=O)c2ccc(CNS(=O)(=O)c3ccc(OC)cc3)cc2)CC1 | – | inactive: 2.92%
N#CCCN(/N=C/c1cccnc1)C1=NS(=O)(=O)c2ccccc21 | – | inconclusive: -33.5% [at 46 µM]
CN1CCN(C(=O)/C=C/c2ccc([N+](=O)[O-])cc2)CC1 | – | inconclusive: 2.65%
NS(=O)(=O)c1ccc(CNC(=S)NCc2ccc(Cl)cc2)cc1 | – | inconclusive: -28.5%
COc1ccc(CC(=O)N2CC(C)CC(C)C2)cc1 (stereo unspecified) | – | inactive: 22.2%

Compound | Potency | ratio change, negative = inhibition
O=C(C1CCCN(S(=O)(=O)c2ccc(F)cc2)C1)N(Cc1cccs1)C1CC1 (stereo unspecified) | inconclusive: 15.8 µM [fluorescent, single point] | –
Cc1ccccc1-c1nc2scc(CCNS(=O)(=O)c3ccccc3)n2n1 | – | inactive: -1.82% [at 46 µM]
Cc1ccc(-c2noc(CN(C(=O)Cc3ccccc3)C(C)C)n2)cc1 | – | inconclusive: -36.3%
Cc1cccc(S(=O)(=O)N2CN(Cc3ccco3)c3nc4ccccc4nc32)c1 | – | inconclusive: -35.8%
O=C(Nc1cccc(S(=O)(=O)N2CCCCC2)c1)c1ccccc1NS(=O)(=O)c1ccc(F)cc1 | – | inconclusive: -32.8%
Cc1c(C(=O)NCc2ccccc2)sc2nc3n(c(=O)c12)CCCCC3 | – | inactive: 2.7% [at 46 µM]
O=C(CNS(=O)(=O)c1ccc(Cl)cc1)N/N=C/c1ccco1 | – | inconclusive: 6.94% [at 46 µM]
COC(=O)c1sccc1S(=O)(=O)N1CCN(c2cc(Cl)ccc2C)CC1 | – | inconclusive: -25% [at 46 µM]
Cc1ccc(Cl)cc1N1CCN(C(=O)c2ccc(NC(=O)c3nsc4ccccc34)cc2)CC1 | – | inactive: -2.73% [at 46 µM]
COCCCn1c(C)nnc1SCC(=O)NCc1ccco1 | – | inconclusive: -15.9%
Cc1nn(S(=O)(=O)c2ccc(C(C)(C)C)cc2)c(C)c1S(=O)(=O)N1CCCCCC1 | – | inactive: 12.6% [at 46 µM]
Cc1sc2ncn(CC(=O)NCC3COc4ccccc4O3)c(=O)c2c1S(=O)(=O)N1CCOCC1 (stereo unspecified) | – | inconclusive: 21.3% [at 46 µM]
CCOC(=O)c1cc(C(C)C)sc1NC(=O)COC(=O)CCS(=O)(=O)c1ccccc1 | – | inconclusive: 4.58%
CCN(CC)S(=O)(=O)c1cccc(C(=O)Nc2ccc(C#N)cc2)c1 | inconclusive: 7.08 µM [falling, full curve] | –
O=C(c1cc2ccccc2cc1OCC(O)CN1CCCCC1)N1CCCCC1 (stereo unspecified) | – | inactive: 2.69%
Cc1ccsc1C(=CCCN1CCC[C@@H](C(=O)O)C1)c1sccc1C | – | inconclusive: -28.3%
COC(=O)CSc1nc2nc(C)cc(C)n2n1 | – | inactive: -13%
CCOC(=O)c1[nH]c2ccc(OC)cc2c1NC(=O)C(C)N1CCSCC1 (stereo unspecified) | – | inconclusive: 10%
CN(C)S(=O)(=O)c1ccc(C(=O)OCC(=O)c2ccc3c(c2)NC(=O)CO3)cc1 | – | inconclusive: 14.4% [at 46 µM]
CCn1c(/N=C/c2ccccc2NS(=O)(=O)c2ccc(C)cc2)nc2ccccc21 | – | inconclusive: -34.9%
S=C(c1c[nH]c2ccccc12)N1CCOCC1 | – | inconclusive: -14.4% [at 46 µM]

Compound | Potency | ratio change, negative = inhibition
O=C(CN1C(=O)C2CC=CCC2C1=O)Nc1ccc(S(=O)(=O)N2CCOCC2)cc1 (stereo unspecified) | – | inconclusive: 9.51% [at 9.22 µM]
Cc1c(O)cc2n(c1=O)-c1ccccc1C2(C)C | – | inactive: -6.79%
COc1ccc(-c2cn3cc([N+](=O)[O-])ccc3n2)cc1OC | – | inactive: 7.91% [at 9.22 µM]
O=C(CCS(=O)(=O)c1ccccc1)NCCS(=O)(=O)c1ccccc1 | – | inconclusive: -7.39% [at 46 µM]
O=S(=O)(Nc1ccc(O)c(Sc2nc3ccccc3s2)c1)c1ccc(F)cc1 | inconclusive: 20 µM [falling, partial curve, poor fit] | –
CC1CCN(CCc2nc3cc(NS(=O)(=O)c4ccccc4)ccc3n2C)CC1 | – | inconclusive: -37.2%
O=C(Nc1ccc(N2CCOCC2)cc1)C1CCCCC1 | – | inactive: 1.22%
Cc1ccc(-c2noc(CCC(=O)NCc3ccc4c(c3)OCO4)n2)cc1 | – | inconclusive: 5.36%
Cc1ccccc1NC(=S)N(CCc1c(C)[nH]c2ccc(F)cc12)Cc1cccnc1 | – | inactive: 27.4% [at 9.22 µM]
CC1(C)CC(=O)C(C(c2cccnc2)C2C(=O)CC(C)(C)CC2=O)C(=O)C1 | – | inactive: -1.98%
CCN(C(=O)COC(=O)c1cccc(-n2cnnn2)c1)C1CCCCC1 | – | inconclusive: 9.45% [at 46 µM]
N#Cc1c(-c2ccc(Cl)cc2)c(C#N)c(=O)n(N)c1N | – | inconclusive: -24.5%
CC(C)CCn1c(Sc2nc3ccccc3o2)nc2c1c(=O)[nH]c(=O)n2C | – | inconclusive: -33.7%
COc1ccc(S(=O)(=O)Nc2ccccc2C(=O)NCc2ccco2)cc1Br | – | inconclusive: -2.61%
O=C(NCc1ccncc1)c1ccc(Cl)c(S(=O)(=O)N2CCOCC2)c1 | – | inconclusive: 8.17%
COc1cccc(NC(=O)CN2CCN(c3nc(-c4cccc(OC)c4)cs3)CC2)c1 | inconclusive: 17.8 µM [fluorescent, single point] | –
COc1ccc(O)c(C(c2c(C)[nH][nH]c2=O)c2c(C)[nH][nH]c2=O)c1 | – | inconclusive: 8.13% [at 46 µM]
Cc1cccc(N(C)C(=O)CCS(=O)(=O)c2ccc3c(c2)oc(=O)n3C)c1 | – | inactive: -20.6% [at 46 µM]
Cn1c2c(c(=O)n(C)c1=O)C(NC(=O)C(C)(C)C)(C(F)(F)F)C(=O)N2 (stereo unspecified) | – | inactive: 4.66%
C#CCn1ccc(O)c(Cc2c(F)cccc2Cl)c1=O | – | inconclusive: 32.8% [at 46 µM]
O=C(NC(=S)Nc1ccc(Br)cn1)c1cncc(Br)c1 | – | inactive: 8.76%

Compound | Potency | ratio change, negative = inhibition
CCOC(=O)N1CCN(Cc2nc3cc(NC(=O)c4ccccc4[N+](=O)[O-])ccc3n2C(C)C)CC1 | – | inconclusive: -32.4% [at 46 µM]
Cc1ccc(C)n1NC(=O)c1ccccc1[N+](=O)[O-] | – | inconclusive: -16.1% [at 9.22 µM]
COc1cccc(-c2cc(C(F)(F)F)c3c(N)c(C#N)sc3n2)c1 | inconclusive: 12.6 µM [activator, partial curve, poor fit] | –
CNCCCN1c2ccccc2CCc2ccccc21 | – | inconclusive: -18.6%
COc1cccc(N2CCN(c3ncnc4c3nc3n4CCCCC3)CC2)c1 | – | inconclusive: -30.8% [at 46 µM]
CS(=O)(=O)c1ccc(C(=O)Nc2cc(S(C)(=O)=O)ccc2Cl)cc1 | – | inactive: -13%
NC(=O)C1CCN(C(=O)c2cccc(NC(=O)c3nsc4ccccc34)c2)CC1 | – | inconclusive: -0.309% [at 46 µM]
O=C(O)c1cc(-n2cccc2)ccc1N1CCOCC1 | – | inconclusive: -1.93% [at 46 µM]
O=C(C1COc2ccccc2O1)N(Cc1cccnc1)c1nc2ccc(Cl)cc2s1 (stereo unspecified) | – | inconclusive: 22.9% [at 46 µM]
Cc1ccc2onc(CC(=O)Nc3cccc(C(F)(F)F)c3)c2c1 | – | inconclusive: -34.3% [at 46 µM]
Clc1ccccc1-c1ccc2ncnc(NCCN3CCOCC3)c2c1 | – | inconclusive: -1.18%
Cc1ccccc1C(=O)NC1CCN(Cc2nnnn2C2CCCC2)CC1 | – | inactive: 2.12%
CCC(C)n1ncn(-c2ccc(N3CCN(c4ccc(OCC5COC(Cn6cncn6)(c6ccc(Cl)cc6Cl)O5)cc4)CC3)cc2)c1=O (stereo unspecified) | – | inconclusive: -8.15% [at 46 µM]
CCOC(=O)C1=C(Nc2ccccc2)CC(C)(O)C(C(=O)OCC)C1c1ccc(Br)cc1 (stereo unspecified) | – | inconclusive: 1.62%
COC(=O)c1ccc(/C=N\NC(=O)c2ccc(C)cc2Cl)cc1 | inconclusive: 22.4 µM [activator, single point] | –
Cc1cccc(Nc2ccccc2C(=O)O)c1C | inconclusive: 11.2 µM [inhibitor, partial curve, poor fit] | –
COc1ccccc1NCc1cccn1-c1nnc(N2CCCCCC2)s1 | inconclusive: 35.5 µM [inhibitor, single point] | –
COc1cccc(CN2CCN(Cc3cccc4nonc34)CC2CCO)c1 (stereo unspecified) | – | inconclusive: 10.5% [at 46 µM]

Whole records from above:
COc1cccc(-c2cc(C(F)(F)F)c3c(N)c(C#N)sc3n2)c1 is entered as Potency: inconclusive: 12.6 µM [activator, partial curve, poor fit]
CCC(C)n1ncn(-c2ccc(N3CCN(c4ccc(OCC5COC(Cn6cncn6)(c6ccc(Cl)cc6Cl)O5)cc4)CC3)cc2)c1=O (stereo unspecified) is entered as ratio change, negative = inhibition: inconclusive: -8.15% [at 46 µM]
O=C(C1COc2ccccc2O1)N(Cc1cccnc1)c1nc2ccc(Cl)cc2s1 (stereo unspecified) is entered as ratio change, negative = inhibition: inconclusive: 22.9% [at 46 µM]
CNCCCN1c2ccccc2CCc2ccccc21 is entered as ratio change, negative = inhibition: inconclusive: -18.6%
